Experimental data from PubChem BioAssay AID1259423 (Fisher Drug Discovery Resource Center, 2018).
The list shows a part of the results.

Test system: Aedes aegypti neuropeptide Y-like receptor 7 (NPYLR7)
Assay: agonists of mosquito NPYLR7 receptor, primary screen, cell-based, Aedes aegypti, calcium fluorescence, mosquito biting behavior (AID 1259423);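 further: 0% = vehicle and 100% = reference agonist at the receptor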
Details: HEK293T NPYLR7/Galpha15, GCaMP6s calcium fluorescence; measured here: Max-Min RFU normalised activation; at 10 µM; stronger effect = higher value

Row | SMILES | activation [%]
1 | CN(CCCl)CCCl | -13.8
